Results deposited as PubChem BioAssay AID1259254 (NCATS, 2017).

- Screen: 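Finding genes that stop cells copying their DNA twice in one cycle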 (primary screen)
- System: human HCT116 colorectal cancer cells
- Reagent: single siRNA against human genes
- Time to read-out: 3 days
- Measured: 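Imaged Hoechst DNA stain sorts each cell into a cycle phase by DNA amount; per plate, G2 fraction set to 0% for non-targeting and 100% for GMNN siRNA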
- Reading the numbers: G2 robust z-score and G2 cells, % of GMNN control: higher = more G2 cells, more excess DNA replication
- Hit rule: 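An siRNA counts as active if its G2 robust z-score lies at least 5 MADs above the screen median; here such calls match roughly 38% of GMNN control or more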
The deposit covers about 59,000 reagents; below is a part drawn at random. Of all reagents, about 1,550 (2.6%) were called active. 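G2 share is only a proxy for re-replication; each gene was hit by three separate siRNAs, and active genes were retested.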 The numbers tell different reagents against one gene apart. Not all columns of the deposit are shown. The record does not give: the amount of reagent.

BOD1 (biorientation of chromosomes in cell division 1) #1 | G2 robust z-score = 1.83; G2 cells, % of GMNN control = 15.9; activity call = inactive
BOD1 (biorientation of chromosomes in cell division 1) #2 | G2 robust z-score = -0.0205; G2 cells, % of GMNN control = 2.82; activity call = inactive
BOD1 (biorientation of chromosomes in cell division 1) #3 | G2 robust z-score = 0.54; G2 cells, % of GMNN control = 6.77; activity call = inactive
POLR2J (RNA polymerase II subunit J) #1 | G2 robust z-score = -1.09; G2 cells, % of GMNN control = -4.71; activity call = inactive
POLR2J (RNA polymerase II subunit J) #2 | G2 robust z-score = -0.0551; G2 cells, % of GMNN control = 2.58; activity call = inactive
POLR2J (RNA polymerase II subunit J) #3 | G2 robust z-score = 12.1; G2 cells, % of GMNN control = 88.3; activity call = active
SETD7 (SET domain containing 7, histone lysine methyltransferase) #1 | G2 robust z-score = -0.646; G2 cells, % of GMNN control = -1.58; activity call = inactive
SETD7 (SET domain containing 7, histone lysine methyltransferase) #2 | G2 robust z-score = -0.606; G2 cells, % of GMNN control = -1.29; activity call = inactive
SETD7 (SET domain containing 7, histone lysine methyltransferase) #3 | G2 robust z-score = -0.969; G2 cells, % of GMNN control = -3.85; activity call = inactive

The list goes on; the last 3 above are carried over.
SETD7 (SET domain containing 7, histone lysine methyltransferase) #1 | G2 robust z-score = -0.646; G2 cells, % of GMNN control = -1.58; activity call = inactive
SETD7 (SET domain containing 7, histone lysine methyltransferase) #2 | G2 robust z-score = -0.606; G2 cells, % of GMNN control = -1.29; activity call = inactive
SETD7 (SET domain containing 7, histone lysine methyltransferase) #3 | G2 robust z-score = -0.969; G2 cells, % of GMNN control = -3.85; activity call = inactive
TIMM44 (translocase of inner mitochondrial membrane 44) #1 | G2 robust z-score = 5.42; G2 cells, % of GMNN control = 41.1; activity call = active
TIMM44 (translocase of inner mitochondrial membrane 44) #2 | G2 robust z-score = -0.179; G2 cells, % of GMNN control = 1.71; activity call = inactive
TIMM44 (translocase of inner mitochondrial membrane 44) #3 | G2 robust z-score = -0.572; G2 cells, % of GMNN control = -1.06; activity call = inactive
RWDD3 (RWD domain containing 3) #1 | G2 robust z-score = 1.82; G2 cells, % of GMNN control = 15.7; activity call = inactive
RWDD3 (RWD domain containing 3) #2 | G2 robust z-score = -0.703; G2 cells, % of GMNN control = -1.98; activity call = inactive
RWDD3 (RWD domain containing 3) #3 | G2 robust z-score = 0.406; G2 cells, % of GMNN control = 5.83; activity call = inactive
ACAT1 (acetyl-CoA acetyltransferase 1) #1 | G2 robust z-score = -0.728; G2 cells, % of GMNN control = -2.15; activity call = inactive
ACAT1 (acetyl-CoA acetyltransferase 1) #2 | G2 robust z-score = -1.06; G2 cells, % of GMNN control = -4.52; activity call = inactive
ACAT1 (acetyl-CoA acetyltransferase 1) #3 | G2 robust z-score = 0.138; G2 cells, % of GMNN control = 3.94; activity call = inactive
TCEAL5 (transcription elongation factor A like 5) #1 | G2 robust z-score = 1.34; G2 cells, % of GMNN control = 12.4; activity call = inactive
TCEAL5 (transcription elongation factor A like 5) #2 | G2 robust z-score = -0.341; G2 cells, % of GMNN control = 0.565; activity call = inactive
TCEAL5 (transcription elongation factor A like 5) #3 | G2 robust z-score = 1.05; G2 cells, % of GMNN control = 10.4; activity call = inactive
RFLNA (refilin A) #1 | G2 robust z-score = -0.381; G2 cells, % of GMNN control = 0.286; activity call = inactive
RFLNA (refilin A) #2 | G2 robust z-score = 0.00776; G2 cells, % of GMNN control = 3.02; activity call = inactive
RFLNA (refilin A) #3 | G2 robust z-score = -0.937; G2 cells, % of GMNN control = -3.63; activity call = inactive
